According to paper doi:10.1101/2025.05.30.655367:
These are yes or no findings as the source states them, for the method shown. In cells and extracts the contact can be indirect. Some entries that bind do so weakly or less than the wild type. Sequences can lack the tags named with a protein.

Chains of the proteins cited; added tags and fusions are not shown.
UniProt Q9QZ47: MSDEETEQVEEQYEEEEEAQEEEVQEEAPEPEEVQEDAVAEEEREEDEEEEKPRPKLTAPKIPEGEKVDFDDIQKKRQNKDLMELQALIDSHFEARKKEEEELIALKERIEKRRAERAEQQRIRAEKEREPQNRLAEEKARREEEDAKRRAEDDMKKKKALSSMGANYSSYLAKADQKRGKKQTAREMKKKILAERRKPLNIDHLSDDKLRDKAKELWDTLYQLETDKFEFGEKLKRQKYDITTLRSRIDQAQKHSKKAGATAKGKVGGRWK
UniProt P13412: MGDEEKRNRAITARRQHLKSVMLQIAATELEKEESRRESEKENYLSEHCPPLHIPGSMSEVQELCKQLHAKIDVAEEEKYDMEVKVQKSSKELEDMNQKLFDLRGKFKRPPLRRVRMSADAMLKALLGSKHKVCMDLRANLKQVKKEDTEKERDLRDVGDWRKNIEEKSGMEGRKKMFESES
UniProt P20801: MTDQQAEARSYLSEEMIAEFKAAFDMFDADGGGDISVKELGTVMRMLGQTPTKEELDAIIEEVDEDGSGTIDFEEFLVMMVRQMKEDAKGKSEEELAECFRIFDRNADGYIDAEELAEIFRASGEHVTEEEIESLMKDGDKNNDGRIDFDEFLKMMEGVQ

Target: T1, KLHL41-FLAG (UniProt O60662)
T1 sequence: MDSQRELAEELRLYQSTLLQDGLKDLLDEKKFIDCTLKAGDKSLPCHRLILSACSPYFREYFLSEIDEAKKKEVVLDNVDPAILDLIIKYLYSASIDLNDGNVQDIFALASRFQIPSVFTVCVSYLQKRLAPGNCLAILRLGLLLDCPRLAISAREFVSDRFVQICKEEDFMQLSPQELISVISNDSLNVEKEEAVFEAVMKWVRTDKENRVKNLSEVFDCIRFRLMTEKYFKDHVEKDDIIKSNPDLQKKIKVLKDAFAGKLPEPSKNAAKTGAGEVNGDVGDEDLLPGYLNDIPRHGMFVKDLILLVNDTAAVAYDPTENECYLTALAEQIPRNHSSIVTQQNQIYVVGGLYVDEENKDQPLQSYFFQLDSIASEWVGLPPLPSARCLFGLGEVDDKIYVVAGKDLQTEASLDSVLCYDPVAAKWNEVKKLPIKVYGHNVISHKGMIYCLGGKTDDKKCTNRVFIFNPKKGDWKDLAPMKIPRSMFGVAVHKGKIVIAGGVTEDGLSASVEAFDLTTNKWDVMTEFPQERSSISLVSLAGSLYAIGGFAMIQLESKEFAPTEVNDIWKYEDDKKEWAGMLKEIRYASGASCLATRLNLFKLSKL
Experiment: co-IP

binding | Substance
binds | TNNT3 (from UniProt Q9QZ47 1-272)
no binding | TNNI2 (from UniProt P13412 1-182)
no binding | TNNC2 (from UniProt P20801 1-160)
